From the supplement of paper PMC10849652 come the findings set out here.

Sequences of proteins named here, by UniProt entry; tags and fusion partners are left off. A change or cut given only in a name is not applied to a line headed by its entry.
UniProt Q9UJZ1: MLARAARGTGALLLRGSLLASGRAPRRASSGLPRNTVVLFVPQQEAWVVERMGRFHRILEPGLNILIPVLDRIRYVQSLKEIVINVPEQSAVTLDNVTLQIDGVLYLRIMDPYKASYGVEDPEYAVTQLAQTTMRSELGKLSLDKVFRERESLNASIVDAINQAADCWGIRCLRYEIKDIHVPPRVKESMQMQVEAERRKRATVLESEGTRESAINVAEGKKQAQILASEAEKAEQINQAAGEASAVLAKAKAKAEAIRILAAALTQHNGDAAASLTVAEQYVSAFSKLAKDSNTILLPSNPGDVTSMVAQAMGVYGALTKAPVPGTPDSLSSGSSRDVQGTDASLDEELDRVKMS
UniProt A2RTX5: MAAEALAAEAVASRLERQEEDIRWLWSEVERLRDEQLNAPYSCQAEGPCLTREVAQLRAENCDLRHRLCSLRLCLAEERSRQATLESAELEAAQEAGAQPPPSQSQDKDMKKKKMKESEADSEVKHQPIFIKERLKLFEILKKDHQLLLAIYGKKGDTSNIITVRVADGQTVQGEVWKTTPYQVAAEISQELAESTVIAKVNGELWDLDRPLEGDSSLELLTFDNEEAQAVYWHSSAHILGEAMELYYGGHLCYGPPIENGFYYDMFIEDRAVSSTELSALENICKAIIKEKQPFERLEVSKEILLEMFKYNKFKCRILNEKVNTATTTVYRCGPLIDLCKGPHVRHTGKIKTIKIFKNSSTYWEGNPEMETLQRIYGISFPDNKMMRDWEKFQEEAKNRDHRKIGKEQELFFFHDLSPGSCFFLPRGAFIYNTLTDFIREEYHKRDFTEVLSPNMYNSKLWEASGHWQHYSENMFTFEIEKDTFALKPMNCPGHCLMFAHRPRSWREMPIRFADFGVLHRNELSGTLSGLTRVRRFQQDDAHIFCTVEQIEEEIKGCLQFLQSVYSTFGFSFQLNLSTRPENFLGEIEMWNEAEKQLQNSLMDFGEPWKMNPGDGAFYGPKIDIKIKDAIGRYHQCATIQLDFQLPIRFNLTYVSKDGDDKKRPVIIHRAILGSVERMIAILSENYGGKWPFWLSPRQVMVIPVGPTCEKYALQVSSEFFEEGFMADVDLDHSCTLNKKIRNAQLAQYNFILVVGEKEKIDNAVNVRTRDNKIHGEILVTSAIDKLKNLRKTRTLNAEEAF
UniProt Q86VP1, whole entry, looked up: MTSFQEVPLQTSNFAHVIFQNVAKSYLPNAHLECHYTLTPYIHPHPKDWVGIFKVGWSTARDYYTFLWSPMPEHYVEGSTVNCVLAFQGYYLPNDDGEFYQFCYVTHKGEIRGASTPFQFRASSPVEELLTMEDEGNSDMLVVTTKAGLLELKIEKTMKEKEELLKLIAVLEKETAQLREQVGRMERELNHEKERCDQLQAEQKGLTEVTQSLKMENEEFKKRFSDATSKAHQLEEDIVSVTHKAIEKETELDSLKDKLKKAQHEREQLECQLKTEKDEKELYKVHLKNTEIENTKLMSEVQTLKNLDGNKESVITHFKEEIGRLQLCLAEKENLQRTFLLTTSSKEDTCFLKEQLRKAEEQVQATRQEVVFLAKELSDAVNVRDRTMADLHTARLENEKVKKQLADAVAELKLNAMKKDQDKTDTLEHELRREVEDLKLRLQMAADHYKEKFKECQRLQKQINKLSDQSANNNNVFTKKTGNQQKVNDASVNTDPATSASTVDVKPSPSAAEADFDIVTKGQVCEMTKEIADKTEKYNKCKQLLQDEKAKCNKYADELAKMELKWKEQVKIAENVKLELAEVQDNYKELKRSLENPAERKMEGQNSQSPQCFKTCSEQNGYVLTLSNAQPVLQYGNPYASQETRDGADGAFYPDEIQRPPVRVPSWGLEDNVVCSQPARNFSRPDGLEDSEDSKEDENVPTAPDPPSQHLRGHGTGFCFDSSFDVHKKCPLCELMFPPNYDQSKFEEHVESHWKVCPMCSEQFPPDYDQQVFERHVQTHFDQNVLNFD
UniProt O00268, whole entry, looked up: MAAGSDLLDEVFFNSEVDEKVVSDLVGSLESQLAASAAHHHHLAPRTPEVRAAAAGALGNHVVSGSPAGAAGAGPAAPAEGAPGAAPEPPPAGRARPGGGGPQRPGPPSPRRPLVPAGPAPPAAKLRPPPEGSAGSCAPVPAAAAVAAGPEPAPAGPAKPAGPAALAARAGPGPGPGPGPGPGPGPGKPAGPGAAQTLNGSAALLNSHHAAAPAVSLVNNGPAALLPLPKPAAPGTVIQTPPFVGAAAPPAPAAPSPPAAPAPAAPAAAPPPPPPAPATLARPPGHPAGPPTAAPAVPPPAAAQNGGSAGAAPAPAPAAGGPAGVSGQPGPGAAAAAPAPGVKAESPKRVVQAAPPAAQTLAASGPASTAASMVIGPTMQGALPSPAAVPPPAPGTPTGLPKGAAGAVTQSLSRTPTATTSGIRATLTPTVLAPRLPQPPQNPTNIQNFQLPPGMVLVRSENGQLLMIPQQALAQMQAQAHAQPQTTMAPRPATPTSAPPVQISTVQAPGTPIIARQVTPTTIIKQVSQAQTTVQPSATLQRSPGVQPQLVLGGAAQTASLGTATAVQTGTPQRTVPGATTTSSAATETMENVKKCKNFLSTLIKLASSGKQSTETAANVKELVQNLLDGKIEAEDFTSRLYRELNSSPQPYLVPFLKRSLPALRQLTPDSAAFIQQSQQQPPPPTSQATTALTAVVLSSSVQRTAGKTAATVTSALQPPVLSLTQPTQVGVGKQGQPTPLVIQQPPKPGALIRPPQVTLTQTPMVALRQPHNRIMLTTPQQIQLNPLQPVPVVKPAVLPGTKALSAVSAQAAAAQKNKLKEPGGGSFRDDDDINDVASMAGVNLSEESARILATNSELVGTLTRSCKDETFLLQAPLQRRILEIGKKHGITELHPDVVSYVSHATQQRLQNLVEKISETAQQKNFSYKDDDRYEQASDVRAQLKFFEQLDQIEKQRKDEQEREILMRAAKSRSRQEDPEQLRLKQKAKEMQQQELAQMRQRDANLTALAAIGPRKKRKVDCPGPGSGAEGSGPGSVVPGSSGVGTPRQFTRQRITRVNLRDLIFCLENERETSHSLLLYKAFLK
UniProt Q15833: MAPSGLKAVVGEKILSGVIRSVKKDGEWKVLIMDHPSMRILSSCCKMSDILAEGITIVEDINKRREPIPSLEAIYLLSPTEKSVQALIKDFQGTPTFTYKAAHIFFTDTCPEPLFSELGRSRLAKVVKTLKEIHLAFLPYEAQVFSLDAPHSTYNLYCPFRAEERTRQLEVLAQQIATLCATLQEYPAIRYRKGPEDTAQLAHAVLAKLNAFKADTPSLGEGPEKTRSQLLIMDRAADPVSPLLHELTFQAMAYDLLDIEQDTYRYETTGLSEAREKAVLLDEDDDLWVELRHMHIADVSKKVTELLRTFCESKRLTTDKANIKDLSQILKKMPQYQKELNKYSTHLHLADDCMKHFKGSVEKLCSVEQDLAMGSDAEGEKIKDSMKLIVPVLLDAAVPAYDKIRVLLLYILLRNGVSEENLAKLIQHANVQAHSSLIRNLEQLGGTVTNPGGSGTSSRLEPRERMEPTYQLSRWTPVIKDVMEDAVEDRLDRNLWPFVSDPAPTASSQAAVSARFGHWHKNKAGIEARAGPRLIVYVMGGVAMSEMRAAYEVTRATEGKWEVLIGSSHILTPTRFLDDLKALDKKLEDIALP
UniProt Q96A49: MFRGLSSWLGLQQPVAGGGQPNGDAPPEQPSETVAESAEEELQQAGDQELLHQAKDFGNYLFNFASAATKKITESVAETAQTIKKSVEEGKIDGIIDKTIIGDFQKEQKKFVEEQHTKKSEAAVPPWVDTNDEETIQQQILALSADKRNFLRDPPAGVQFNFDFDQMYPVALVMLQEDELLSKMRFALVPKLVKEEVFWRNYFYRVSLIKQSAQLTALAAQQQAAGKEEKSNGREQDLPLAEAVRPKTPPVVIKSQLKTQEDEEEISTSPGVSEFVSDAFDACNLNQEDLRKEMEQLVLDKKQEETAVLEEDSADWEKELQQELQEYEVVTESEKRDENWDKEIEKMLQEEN
UniProt Q17R31: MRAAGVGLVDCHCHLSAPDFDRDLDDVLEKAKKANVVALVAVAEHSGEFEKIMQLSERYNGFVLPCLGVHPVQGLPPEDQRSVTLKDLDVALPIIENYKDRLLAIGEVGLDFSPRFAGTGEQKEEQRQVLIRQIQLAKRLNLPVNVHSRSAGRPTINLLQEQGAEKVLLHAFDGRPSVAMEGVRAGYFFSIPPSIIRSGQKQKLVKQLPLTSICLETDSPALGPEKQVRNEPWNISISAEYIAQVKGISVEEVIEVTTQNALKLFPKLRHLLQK
UniProt Q8NHG7: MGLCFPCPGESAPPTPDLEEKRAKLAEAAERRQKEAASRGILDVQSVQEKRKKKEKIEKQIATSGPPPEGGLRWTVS
UniProt Q5VSL9: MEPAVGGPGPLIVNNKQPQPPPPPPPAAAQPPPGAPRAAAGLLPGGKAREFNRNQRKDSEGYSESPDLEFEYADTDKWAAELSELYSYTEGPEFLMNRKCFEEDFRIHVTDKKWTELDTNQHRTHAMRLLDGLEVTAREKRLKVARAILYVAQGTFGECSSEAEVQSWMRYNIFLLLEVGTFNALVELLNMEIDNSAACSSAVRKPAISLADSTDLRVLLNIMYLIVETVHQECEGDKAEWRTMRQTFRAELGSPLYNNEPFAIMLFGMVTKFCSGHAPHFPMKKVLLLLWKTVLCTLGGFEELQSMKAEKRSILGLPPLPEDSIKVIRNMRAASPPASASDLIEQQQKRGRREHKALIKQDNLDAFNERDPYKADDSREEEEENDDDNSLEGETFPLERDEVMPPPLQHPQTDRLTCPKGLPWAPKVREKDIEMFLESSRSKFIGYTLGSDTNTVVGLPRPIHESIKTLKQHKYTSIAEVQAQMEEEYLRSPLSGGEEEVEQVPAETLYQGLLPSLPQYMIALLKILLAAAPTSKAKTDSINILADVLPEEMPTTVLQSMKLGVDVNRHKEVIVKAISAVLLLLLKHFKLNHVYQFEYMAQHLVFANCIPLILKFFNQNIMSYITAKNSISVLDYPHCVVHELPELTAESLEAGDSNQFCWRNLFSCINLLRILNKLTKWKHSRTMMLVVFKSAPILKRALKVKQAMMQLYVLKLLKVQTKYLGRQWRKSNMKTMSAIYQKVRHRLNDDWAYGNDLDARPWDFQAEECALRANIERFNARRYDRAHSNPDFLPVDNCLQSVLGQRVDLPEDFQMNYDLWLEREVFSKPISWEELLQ
UniProt O75410: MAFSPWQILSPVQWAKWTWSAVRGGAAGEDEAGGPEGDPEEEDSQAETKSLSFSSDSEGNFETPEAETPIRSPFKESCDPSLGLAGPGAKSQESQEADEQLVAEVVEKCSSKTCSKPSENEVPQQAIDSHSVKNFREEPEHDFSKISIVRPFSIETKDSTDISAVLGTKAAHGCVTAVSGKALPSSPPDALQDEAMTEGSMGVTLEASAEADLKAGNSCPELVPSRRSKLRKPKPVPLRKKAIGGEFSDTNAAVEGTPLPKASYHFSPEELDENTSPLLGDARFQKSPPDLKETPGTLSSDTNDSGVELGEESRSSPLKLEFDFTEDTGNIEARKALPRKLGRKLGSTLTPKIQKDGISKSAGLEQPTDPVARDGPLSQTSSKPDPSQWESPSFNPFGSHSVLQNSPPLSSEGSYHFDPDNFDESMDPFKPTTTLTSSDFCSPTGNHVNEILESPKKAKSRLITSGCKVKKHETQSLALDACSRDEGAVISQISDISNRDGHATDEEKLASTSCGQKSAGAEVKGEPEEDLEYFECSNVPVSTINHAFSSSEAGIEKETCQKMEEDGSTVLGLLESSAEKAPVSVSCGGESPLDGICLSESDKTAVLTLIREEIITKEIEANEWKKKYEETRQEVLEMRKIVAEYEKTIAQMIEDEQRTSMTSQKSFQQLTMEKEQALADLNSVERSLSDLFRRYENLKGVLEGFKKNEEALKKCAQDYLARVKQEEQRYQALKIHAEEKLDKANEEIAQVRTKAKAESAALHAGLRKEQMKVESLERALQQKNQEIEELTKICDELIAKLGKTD
UniProt O60506: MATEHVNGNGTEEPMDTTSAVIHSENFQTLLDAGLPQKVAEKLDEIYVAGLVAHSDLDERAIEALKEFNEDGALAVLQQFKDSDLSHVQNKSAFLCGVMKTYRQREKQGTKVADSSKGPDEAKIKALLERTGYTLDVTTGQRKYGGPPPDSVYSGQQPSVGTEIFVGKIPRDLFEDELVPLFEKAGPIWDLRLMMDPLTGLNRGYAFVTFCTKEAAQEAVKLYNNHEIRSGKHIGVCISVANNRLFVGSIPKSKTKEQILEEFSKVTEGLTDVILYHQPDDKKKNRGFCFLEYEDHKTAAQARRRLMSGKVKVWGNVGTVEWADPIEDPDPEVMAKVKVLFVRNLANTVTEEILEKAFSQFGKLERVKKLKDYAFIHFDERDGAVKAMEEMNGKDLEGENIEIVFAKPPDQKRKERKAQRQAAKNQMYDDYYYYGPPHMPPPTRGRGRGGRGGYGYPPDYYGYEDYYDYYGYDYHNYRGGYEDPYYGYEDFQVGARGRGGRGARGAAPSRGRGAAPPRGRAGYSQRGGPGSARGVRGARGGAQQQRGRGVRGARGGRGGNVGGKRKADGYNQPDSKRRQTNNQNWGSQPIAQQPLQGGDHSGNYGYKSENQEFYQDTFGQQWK

Some of the results follow.

Compound in the first assay: C1=CC=C(C=C1)C2=NC(=C(N2)C3=CC=NC=C3)C4=CC(=C(C=C4)Cl)O
Briefly: log2 fold change, soluble protein after heating vs DMSO (PISA); higher = thermal stabilisation; K562 cells, 10 uM, 30 min; active = over 0.2 and 3.5 SD of the protein, either way, in both replicates (recomputed). Summed up:
(§1)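 Values are thermal stability changes relative to control samples and are taken from duplicates. They are stated as log2 fold changes. Before quantification by TMTpro 16plex LC-MS/MS with equalised channel sums, K562 cells at 2×10^6 cells/mL were treated with 10 μM compound for 30 min, heated in aliquots for 3 min across 48°C-58°C, pooled, extracted in PBS with 0.5% NP-40 at 4°C, and centrifuged at 21,000xg for 90 min to give the soluble supernatant.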
Consider STOML2 (UniProt Q9UJZ1), for which the log2 fold change was inactive: 0.007.
Regarding STRBP (UniProt Q96SI9), the log2 fold change was inactive: -0.005.
For STRIP2 (UniProt Q9ULQ0), the log2 fold change was inactive: -0.07.
In the case of SUOX (UniProt P51687), the log2 fold change was inactive: -0.112.
Same read-out and setting: the figure for TACO1 (UniProt Q9BSH4) is inactive: 0.251; for SUN2 (UniProt Q9UH99) it is inactive: 0.005.
Same read-out and setting: next, TARSL2 (UniProt A2RTX5): inactive: 0.046; TAX1BP1 (UniProt Q86VP1): inactive: -0.044.
Turning to TAF4 (UniProt O00268), the log2 fold change is inactive: -0.063.
Still for that read-out and setting: next, STX12 (UniProt Q86Y82): inactive: -0.018.
Regarding STK3 isoform 2 (UniProt Q13188), the log2 fold change is inactive: 0.006.
TAGLN2 isoform 2 (UniProt P37802): the log2 fold change was inactive: 0.023.
As to TANK (UniProt Q92844), the log2 fold change is inactive: -0.024.
Still for that read-out and setting: the figure for SUPT4H1 (UniProt P63272) is inactive: 0.018.
Take SYPL1 (UniProt Q16563): the log2 fold change was inactive: -0.011.
Still for that read-out and setting: the figure for STX4 (UniProt Q12846) is inactive: 0.051.
On to TBC1D13 (UniProt Q9NVG8), for which the log2 fold change is inactive: 0.029.
As to SUCLG1 (UniProt P53597), the log2 fold change was inactive: 0.061.
Take TAF8 isoform 2 (UniProt Q7Z7C8): the log2 fold change is inactive: 0.012.
As for STXBP2 isoform 3 (UniProt Q15833), the log2 fold change was inactive: 0.05.
The same measure, in the same setting: the figure for TAF15 (UniProt Q92804) is inactive: -0.068; for SUB1 (UniProt P53999) it is inactive: -0.065.
Consider TARS2 (UniProt Q9BW92), for which the log2 fold change was inactive: -0.03.
Still for that read-out and setting: next, SYNE1 (UniProt Q8NF91): inactive: 0.058; STX17 (UniProt P56962): inactive: -0.01; SUPT6H (UniProt Q7KZ85): inactive: 0.071.
On the same count and under the same terms, the figure for SYAP1 (UniProt Q96A49) is inactive: 0.
With TAL1 (UniProt P17542), the log2 fold change is inactive: -0.089.
Same read-out and setting: the figure for SUPV3L1 (UniProt Q8IYB8) is inactive: 0.
TBC1D10B (UniProt Q4KMP7): the log2 fold change is inactive: -0.033.
TARBP2 (UniProt Q15633): the log2 fold change was inactive: 0.047.
For the target TATDN3 isoform 3 (UniProt Q17R31), the log2 fold change is inactive: -0.018.
Regarding SVIP (UniProt Q8NHG7), the log2 fold change is inactive: 0.028.
As to STRIP1 (UniProt Q5VSL9), the log2 fold change is inactive: 0.02.
Still for that read-out and setting: next, SYNJ2 (UniProt O15056): inactive: -0.006.
As for STK38 (UniProt Q15208), the log2 fold change is inactive: 0.057.
In the case of TACC1 isoform 2 (UniProt O75410), the log2 fold change was inactive: -0.033.
SYNCRIP (UniProt O60506): the log2 fold change was inactive: -0.036.
Same read-out and setting: next, STUB1 (UniProt Q9UNE7): inactive: -0.009.

Compound in the next assay: C1=CC=C2C(=C1)C3=NNC4=CC=CC(=C43)C2=O
The description is as above. Summed up: as §1
Consider STOML2 (UniProt Q9UJZ1), for which the log2 fold change was inactive: 0.053.
In the case of STRBP (UniProt Q96SI9), the log2 fold change is inactive: -0.099.
As to STRIP2 (UniProt Q9ULQ0), the log2 fold change was inactive: 0.014.
Take SUOX (UniProt P51687): the log2 fold change was inactive: -0.004.
Same read-out and setting: next, TACO1 (UniProt Q9BSH4): inactive: -0.007.
SUN2 (UniProt Q9UH99): the log2 fold change was inactive: -0.087.
For the target TARSL2 (UniProt A2RTX5), the log2 fold change was inactive: 0.017.
With TAX1BP1 (UniProt Q86VP1), the log2 fold change was inactive: -0.006.
As for TAF4 (UniProt O00268), the log2 fold change was inactive: -0.119.
For the target STX12 (UniProt Q86Y82), the log2 fold change is inactive: -0.042.
Regarding STK3 isoform 2 (UniProt Q13188), the log2 fold change was inactive: -0.121.
On to TAGLN2 isoform 2 (UniProt P37802), for which the log2 fold change was inactive: 0.038.
For TANK (UniProt Q92844), the log2 fold change is inactive: -0.028.
With SUPT4H1 (UniProt P63272), the log2 fold change is inactive: 0.007.
For SYPL1 (UniProt Q16563), the log2 fold change was inactive: -0.005.
On the same count and under the same terms, the figure for STX4 (UniProt Q12846) is inactive: -0.064; for TBC1D13 (UniProt Q9NVG8) it is inactive: -0.026; for SUCLG1 (UniProt P53597) it is inactive: -0.017.
Still for that read-out and setting: the figure for TAF8 isoform 2 (UniProt Q7Z7C8) is inactive: 0.028.
On to STXBP2 isoform 3 (UniProt Q15833), for which the log2 fold change is inactive: 0.026.
As to TAF15 (UniProt Q92804), the log2 fold change is inactive: -0.037.
For SUB1 (UniProt P53999), the log2 fold change is inactive: 0.053.
Take TARS2 (UniProt Q9BW92): the log2 fold change was inactive: 0.003.
Turning to SYNE1 (UniProt Q8NF91), the log2 fold change was inactive: 0.
In the case of STX17 (UniProt P56962), the log2 fold change was inactive: 0.059.
On to SUPT6H (UniProt Q7KZ85), for which the log2 fold change was inactive: -0.118.
Consider SYAP1 (UniProt Q96A49), for which the log2 fold change was inactive: -0.004.
Take TAL1 (UniProt P17542): the log2 fold change is inactive: 0.009.
With SUPV3L1 (UniProt Q8IYB8), the log2 fold change is inactive: -0.023.
Still for that read-out and setting: next, TBC1D10B (UniProt Q4KMP7): inactive: -0.109; TARBP2 (UniProt Q15633): inactive: 0.02; TATDN3 isoform 3 (UniProt Q17R31): inactive: -0.017.
Consider SVIP (UniProt Q8NHG7), for which the log2 fold change was inactive: -0.163.
For STRIP1 (UniProt Q5VSL9), the log2 fold change is inactive: -0.01.
SYNJ2 (UniProt O15056): the log2 fold change is inactive: 0.148.
With STK38 (UniProt Q15208), the log2 fold change is inactive: 0.049.
Turning to TACC1 isoform 2 (UniProt O75410), the log2 fold change was inactive: -0.056.
In the case of SYNCRIP (UniProt O60506), the log2 fold change is inactive: -0.022.
For STUB1 (UniProt Q9UNE7), the log2 fold change was inactive: 0.065.
